Laboratory results taken from PubChem BioAssay AID602296 (Broad Institute, 2012).
Among all 2,000 compounds or so, about 190 (9.5%) were called active. Inconclusive results (about 14%) are left out.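 Rule for the calls: active = fitted activation curve crossing 40% at a concentration no higher than the sample's top valid tested dose; inconclusive = flat fitted curve at 30% to 70% activation, or poor curve fit; inactive = signal decrease, flat curve within 30%, or the rest.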 This part holds few or none of the hits.

test: sustained heat shock response element induction – cell-based, mouse, luciferase, cherry-pick, dose, confirmation (AID 602296); details: NIH3T3-HGL HSF-1 response element luciferase, 48 h; at 26 µM (top of the series) unless noted;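 note: test compounds applied by themselves with no MG132 co-treatment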

activation, inactive:
COc1ccc(C2(c3ccc(OC)cc3)NC(=O)N(CC(=O)N(C)c3ccccc3)C2=O)cc1 -1.93%, COC(=O)CN1C(c2cccc(Cl)c2)=Nc2ccc(Cl)cc2C1c1ccccc1 (stereo not given) -58.3%, O=S(=O)(Nc1cccc2ccccc12)c1cccc2nonc12 2.78%, Cc1cc(C)cc(-n2c3nc4ccccc4nc3c3c(=O)n(Cc4ccco4)cnc32)c1 -95.5%, S=C(NCc1ccco1)N1CCN(c2ccccc2Cl)CC1 -2.45%, NCCCn1c(C(=O)c2cc(Cl)c(N)c(Cl)c2)c2ccc([N+](=O)[O-])cc2[n+]1[O-] -15.3%, CCOC(=O)c1c(C)[nH]c(C)c1C(=O)COc1ncnc2cc([N+](=O)[O-])ccc12 -4.25%, CC(Sc1nc(-c2ccccc2)cc(C(F)(F)F)n1)C(=O)Nc1sc2c(c1C#N)CCC2 (stereo not given) 5.97%, COCCNC(=O)C(c1ccc(C)cc1)N(C(=O)CCC(=O)Nc1ccccn1)c1ccccc1C (stereo not given) 0.343%, O=C(Nc1c(C(=O)c2ccccc2)oc2ccccc12)c1cc(-c2ccccc2O)n[nH]1 -12.7%, COc1ccc2nc3cc(Cl)ccc3c(Nc3cc(C(C)C)c(O)cc3C)c2c1 -100%, C/C(CCc1oc2c(Br)cc(Br)cc2c1-c1ccc(C)o1)=N\O -56.5%, Cc1ccc(S(=O)(=O)NC(=O)Nc2ccc(C)cn2)cc1 4.37%, CCCCNC(=S)N(Cc1ccco1)Cc1cc2cc3c(cc2[nH]c1=O)OCCO3 -47%, CCOC(=O)N1CCN(S(=O)(=O)c2cc(Cl)c(OC)cc2Cl)CC1 -9.9%, Cc1oc(-c2ccoc2)nc1CN(CC1CCC(=O)N1)C(C)C (stereo not given) 0.391%, O=C(N/N=C1\CC(c2ccccc2)Oc2ccccc21)c1ccc(O)cc1 (stereo not given) -3.47%, CC(C)CC(=O)Nc1ccc(N2CCOCC2)cc1 3.39%, COc1cccc(N2CCN(S(=O)(=O)c3ccc(-c4coc(C)n4)cc3)CC2)c1 -29.8%, Cc1[nH]c2ccccc2c1CN1CCN(c2ccccn2)CC1 -15.3%, Cc1ccc(C(c2c(C)nn(-c3ccccc3)c2N)c2c(C)nn(-c3ccccc3)c2N)cc1 -5.45%, N=c1c2c(-c3ccccc3)c(-c3ccccc3)n(Cc3ccco3)c2ncn1CCCN1CCOCC1 -0.688%, Cc1ccc(S(=O)(=O)c2c(C)cc(C)nc2N2CCCCC2)cc1 -41.7%, O=C(O)c1ccc(N(Cc2ccccc2)S(=O)(=O)c2ccccc2)cc1 -0.93%, COc1ccc2nc(Sc3c([N+](=O)[O-])nc(C)n3Cc3ccccc3)[nH]c2c1 -23.5% [at 12 µM], Fc1ccc(CN2CCN(c3ncnc4scc(-c5ccccc5)c34)CC2)cc1 -66.5%, COc1ccc(NC(=O)C(NCC(C)C)c2ccccc2)cc1Cl (stereo not given) -0.667%, C=C(C)Cn1c(SCC(=O)O)nnc1-c1ccc(OC)cc1 -2.32%, COc1ccc(NC(=O)COc2ccccc2Cc2ccccc2)cc1S(N)(=O)=O -11.6%, Cc1cccc(CC(C)NC(=O)c2oc3c(F)cccc3c2C)n1 (stereo not given) -2.82%, COc1ccccc1OCc1nnc(SCCN2CCOCC2)o1 18.5%, Cc1cc2c3c(c1)C1(C(=O)N3C(C)(C)CC2C)C(C#N)=C(N)Oc2cc(O)ccc21 (stereo not given) -29.6%, CC(=O)NCCc1nc2ccccc2n1CCOc1cccc(C)c1 5.11%, CCOC(=O)c1cc(NC(=O)COc2ccc([N+](=O)[O-])cc2)cc(C(=O)OCC)c1 -1.74%, Cc1ccc(C)c(S(=O)(=O)N2CCN(CC(=O)Nc3cc(C)on3)CC2)c1 -6.94%, Cc1oc(-c2ccccc2F)nc1CS(=O)(=O)CC(=O)NCCCN1CCN(C)CC1 -16.7%, Cn1nnnc1SCCNC/C=C/c1ccccc1 -10.7%, Cc1ccc2nnn(Cc3cccc(C(C)(C)C)c3O)c2c1 -46%, Cc1ccc(N(CC(=O)NCCc2ccc(F)cc2)S(=O)(=O)c2ccc(Cl)c([N+](=O)[O-])c2)c(C)c1 -108%, Cc1cccc(NC(=S)N(CCN(C)C)C(C)c2cccnc2)c1 (stereo not given) -1.67%, CN(Cc1ccccc1)c1nc(N)c([N+](=O)[O-])c(NCc2ccccc2)n1 -74.1%, CCOC(=O)C1=CN(Cc2ccc(OC)cc2)C=C(C(=O)OCC)C1c1cccs1 -33.1%, CC(C)C(C(=O)NCc1ccccc1)N(CC1CCCO1)C(=O)CNS(=O)(=O)c1ccccc1 (stereo not given) 12.3%, CCOC(=O)c1ccc(N=c2sc(C(=O)OC)cc(=O)n2-c2ccc(C(=O)OCC)cc2)cc1 -88.9%, CCOC(=O)c1ccc(N2C(=O)CC(N3CCC(Nc4ccc(F)cc4)CC3)C2=O)cc1 (stereo not given) -17%, CCCCNc1cc(NC(C)=O)cc2cc(OC)c(OC)cc12 -32.6%, OC(CNCc1ccc(F)cc1)(c1ccc(F)cc1)c1ccc(F)cc1 -38.3%, COP(=O)(OC)c1nc(-c2cccc3ccccc23)oc1NCc1ccccc1 -62.3%, CCOC(=O)c1c(S(=O)(=O)NCC2CCN(CCc3cccs3)CC2)c(C)n(C)c1C 5.71%, Cc1ccc(S(=O)(=O)N(C)C)cc1NC(=S)NC(C)CCCC(C)C (stereo not given) -50.3%, O=C1C2=C(NC(=S)NC2c2ccc(Cl)cc2)NC(c2ccc(Cl)cc2)N1c1ccc(Cl)cc1 (stereo not given) -101%, Cc1[nH]nc(-c2ccc(O)c(C)c2O)c1-c1cnn(-c2ccccc2)c1 -13.3%, O=C(CSc1nnc2c(Cl)cc(C(F)(F)F)cn12)N(Cc1ccccc1)Cc1ccccc1 5.92%, C/C=C1\COC(C(=O)NCc2ccccc2)(C(F)(F)F)C=C1C=C(C)C (stereo not given) -18.1%, CCOC(=O)Cn1nnnc1C(C(C)C)N(Cc1cc2c(C)cc(C)cc2[nH]c1=O)C1CCCC1 (stereo not given) -57.6%
